Laboratory results as given in the supplement of paper PMC3334620.
The full ranking holds about 33,000 sequences; the median of “E-score (-0.5 to 0.5)” is about -0.0059, and the highest 2% start at about 0.26. The list shows a part of the results.

Target: T1, Cin5 (UniProt P40917)
T1 sequence: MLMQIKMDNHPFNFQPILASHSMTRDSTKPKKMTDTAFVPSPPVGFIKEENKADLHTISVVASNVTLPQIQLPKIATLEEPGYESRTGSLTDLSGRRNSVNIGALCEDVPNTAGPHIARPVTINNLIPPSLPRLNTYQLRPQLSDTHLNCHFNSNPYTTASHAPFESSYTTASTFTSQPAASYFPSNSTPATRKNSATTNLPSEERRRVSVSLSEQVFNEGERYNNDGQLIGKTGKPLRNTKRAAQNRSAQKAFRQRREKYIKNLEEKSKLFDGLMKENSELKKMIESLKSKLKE
Test: PBM E-score (8-mer binding enrichment) (E-score (-0.5 to 0.5)); higher = stronger / more preferred TF binding
Settings: protein concentration: 100 nM; construct: GST-full length
In short: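 E-scores (a modified Wilcoxon-Mann-Whitney statistic) were assigned by the Universal PBM Analysis Suite to every ungapped eight-base word pooled with its reverse complement. The input came from universal all-10-mer Agilent arrays made double-stranded by primer extension and probed with GST-tagged yeast transcription factors at about 100-200 nM. Fluorescent anti-GST detected bound protein, and masliner normalised the scans.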

Sequence | PBM E-score
ATCCCTTA | -0.092
TCTTCAAA | -0.0682
AAGACGTG | 0.0389
GCATAGTA | 0.229
AGATTGAT | 0.112
GCCGTCTA | -0.0956
CATGTTGA | 0.293
AAGGAGCG | -0.173
GACGTTAC | 0.0271
GTCTGGAA | -0.17
GATATCCC | -0.0407
AATTCACC | 0.122
AAGATGGC | 0.0421
ATGATCGA | 0.0882
ACGGATCC | 0.116
CAATGTGC | 0.00948
GATATGCA | 0.0435
AGGGTACC | -0.312
GCGACATA | 0.0265
TACCCTAA | -0.0131
GTGCAACA | -0.157
GTGTGATA | 0.2
AGGTTTAT | 0.251
CACTTACC | 0.245
CGGGGAAA | 0.0961

Sequence | PBM E-score
TGCCATAA | 0.224
GAAGTAAC | 0.119
CGATGTTA | 0.154
CCTGTGCG | -0.0861
CAACTTAA | 0.0452
AGTAGAAA | 0.193
GCGACCAC | 0.0549
AGAACCGA | -0.00797
GTACCCAA | -0.00826
CACATCTA | 0.196
AGTATACC | 0.0865
GACTAGTC | -0.228
CTGCCCTC | -0.312
CAGAACCC | 0.0132
AATGTCCC | -0.105
AGACCGGC | -0.335
GCATTTCA | 0.0996
AATCCGAA | 0.0614
ATCCGTGG | 0.00752
GATATGGA | 0.244
AGGTTCGG | -0.17
AGGCGACA | -0.138
ATACATTA | 0.124
AAGCTGGC | -0.163
CAGGGAAA | 0.0138

Sequence | PBM E-score
GCGTAAAC | 0.144
CCGCAGCG | -0.191
GAACCGTA | -0.192
CTCGCTGA | -0.0383
ACTTTGGC | -0.122
ACTATCGA | 0.037
ATAAAACG | 0.153
AGGGGTGA | -0.144
CAAACGGG | 0.0273
ACTACTGC | -0.0248
CCTCACAC | -0.136
CGAGCTCC | 0.0245
ACATTGAC | 0.116
CCAACTCA | -0.0114
GCATGAGA | 0.205
GTTCCTAA | -0.132
GGCACAAC | -0.104
CAAAGGTA | -0.0912
TGTTCCAA | -0.0783
GCCTAGAA | -0.114
TCCTATAA | 0.109
CAATAATG | 0.0624
TGAAGAAA | 0.0943
GAAGACAA | 0.00891
CAGACTGG | -0.108

Sequence | PBM E-score
CCACATCC | 0.077
CTATCCGA | 0.00159
ACATTTCC | 0.0832
GCGAGGGA | -0.136
CCAAATCC | -0.0421
ACATGTTG | 0.154
GATTCAGC | 0.0231
ATAGCGTC | -0.13
GCCACGCC | -0.127
CACTTCGA | 0.0479
CTACAGGC | -0.209
GGTTGTAC | -0.00691
CAAAAATA | 0.277
GTCGAAAC | -0.0513
ATGAACGC | 0.211
ACTGGCTC | -0.186
AATCAACG | 0.137
CCATGAAC | 0.115
AGAACGGC | -0.0327
TATGGACA | 0.0541
ACGTTCGC | -0.116
AGTTGCAC | -0.131
ATGTTAGC | 0.107
ACTCAATC | 0.188
TAGTTAGA | 0.0856

Four entries from above in another layout:

| Sequence | PBM E-score |
| --- | --- |
| ACATGTTG | 0.154 |
| CTACAGGC | -0.209 |
| GGTTGTAC | -0.00691 |
| TAGTTAGA | 0.0856 |

(list continues)

Sequence | PBM E-score
CAGGTGCG | 0.016
AGGTCCCC | -0.178
AGTCGTGC | -0.3
CAGGGCAG | -0.105
AGTATTCG | 0.192
CTTATTAA | 0.299
CAAAGTTC | -0.0124
TACTAACA | 0.185
CGGCGGCC | -0.169
CATTGTGC | 0.0593
GCCCATCC | -0.135
AATCGGCT | 0.014
CCTGTGAG | -0.123
GAACCGGC | -0.198
CCTTATCA | 0.0994
ACACCGCG | -0.148
ACATTCTC | 0.0769
ACCCAGAC | 0.039
CGTGCGGA | -0.0296
AATCCGTG | -0.0804
CAGGAGAA | 0.0225
CACAGATG | 0.00139
GGTACACA | -0.174
CTAGGTTC | -0.066
AGTAGACT | -0.0124

Sequence | PBM E-score
ATAGGTTA | 0.17
GAATACTA | 0.267
GACGTTCC | 0.0647
TAGCCACA | -0.051
TCTTCCAA | -0.0605
GACGAGGC | -0.162
AACACCTT | 0.0638
AAACATCG | -0.156
CCTAAATC | 0.0853
CATAAAAA | 0.131
GGATTCAA | -0.0607
CAGCATAA | 0.148
ACATTGCT | -0.0381
TGGGGAAA | 0.187
CGGTCCTA | -0.232
AATTCTAA | 0.143
CTTGTTGA | -0.0242
AGGCGAAG | -0.195
CCGCCCAA | -0.189
GCGTTCCA | -0.0663
ATTTGCAG | 0.0556
CAGACGCC | -0.151
ATGATTCG | 0.053
GAGTTCTA | -0.116
TACAGGAA | 0.0717

Sequence | PBM E-score
CTACCTTA | 0.0432
GTACGTCA | 0.172
AGCGTGAT | 0.0865
CCTTTCAC | -0.0027
ATTGGCCG | 0.02
CAGAGGAG | -0.262
CAACGCTC | -0.216
CCTTGGCC | -0.35
GCATATTA | 0.246
GCGTTTCC | 0.0818
AGTCGTAG | -0.16
GTTTTCTA | 0.132
ATAATCCG | 0.235
GCCCTGTA | 0.0321
AGTACTTC | 0.199
GAAAAAGA | 0.104
GCAAAAAA | 0.157
ATTCCGGA | 0.256
GCGTTACA | 0.0658
ATCTGTGG | -0.0485
GCAGCAGA | -0.106
GCGCGGGA | 0.012

Laid out differently: entries from further up.
CCTGTGCG
  PBM E-score: -0.0861
CAACTTAA
  PBM E-score: 0.0452
